These results are taken from patent US20100193777A1, “METHOD OF PRODUCING A DESUBSTITUTED COMPOUND, ORGANIC SEMICONDUCTOR FILM AND METHOD OF PRODUCING THE SAME” (FUJIFILM Corporation, priority 2007, published 2010).

The nature of the data set: FET characteristics of cast thin film on bottom contact-type substrate. The following applies: for carrier mobility: film cast from pure water solution, after heat treatment.
The mark [1] stands for this setting: sample from chloroform coating liquid.
The mark [2] stands for this setting: sample from pure water coating liquid.

For `c1ccc2c(c1)-c1nc-2nc2[nH]c(nc3nc(nc4[nH]c(n1)c1ccccc41)-c1ccccc1-3)c1ccccc21` [metal-free phthalocyanine], under setting [1], the “FET characteristics after heat treatment” value is on record as “no FET characteristics” and the “FET characteristics before heat treatment” value is recorded as “no FET characteristics”. For the same molecule, under setting [2], the “FET characteristics after heat treatment” value is “no FET characteristics” and the “FET characteristics before heat treatment” value was “no FET characteristics”.

For “zinc phthalocyanine-tetrasulfonic acid [Exemplified compound (53)]”, the carrier mobility is on record as 1.1×10^−7 cm^2/Vs. Further, the “FET characteristics before heat treatment” value under setting [2] is “no FET characteristics”.

In the case of “metal-free phthalocyanine-tetrasulfonic acid [Exemplified compound (54)]”, the carrier mobility is recorded as 2.7×10^−6 cm^2/Vs. Besides, the “FET characteristics before heat treatment” value under setting [2] is listed as “no FET characteristics”.

Consider `[Cu+2].c1ccc2c(c1)-c1nc-2nc2[n-]c(nc3nc(nc4[n-]c(n1)c1ccccc41)-c1ccccc1-3)c1ccccc21` [cupper phthalocyanine], for which, under setting [1], the “FET characteristics after heat treatment” value is reported as “no FET characteristics” and the “FET characteristics before heat treatment” value is on record as “no FET characteristics”.

As to `[Zn+2].c1ccc2c(c1)-c1nc-2nc2[n-]c(nc3nc([n-]c4nc(n1)-c1ccccc1-4)-c1ccccc1-3)c1ccccc21` [zinc phthalocyanine], under setting [1], the “FET characteristics after heat treatment” value is listed as “no FET characteristics” and the “FET characteristics before heat treatment” value is reported as “no FET characteristics”. Under setting [2], the “FET characteristics after heat treatment” value is on record as “no FET characteristics” and the “FET characteristics before heat treatment” value is “no FET characteristics”.
